Experiment [1] has as its target Stat3, endogenous in primary rat Schwann cells (rat (endogenous in primary Schwann cells)) (UniProt P52631). The experiment can be described thus: co-IP; IP of Stat3 (Flag antibody as control), Western blot of Tip60; lysates of rat Schwann cells induced to de-differentiate for 1 day. In general terms: Immunoblotting shows a protein as a band on a membrane.
In experiment [2] the target is eukaryotic elongation factor 1A1 (eEF1A1), endogenous in primary rat Schwann cells (rat (endogenous in primary Schwann cells)) (UniProt P62630). The experiment can be described thus: co-IP; IP of eEF1A1, Western blot of Tip60 and Stat3; lysates of rat Schwann cells induced to de-differentiate for 1 day, treated with the Tip60 inhibitor TH1834 or vehicle, or transduced with Stat3 shRNA or control shRNA lentiviruses.

By UniProt entry, the sequences of proteins in these tests, tags left out.
UniProt P52631: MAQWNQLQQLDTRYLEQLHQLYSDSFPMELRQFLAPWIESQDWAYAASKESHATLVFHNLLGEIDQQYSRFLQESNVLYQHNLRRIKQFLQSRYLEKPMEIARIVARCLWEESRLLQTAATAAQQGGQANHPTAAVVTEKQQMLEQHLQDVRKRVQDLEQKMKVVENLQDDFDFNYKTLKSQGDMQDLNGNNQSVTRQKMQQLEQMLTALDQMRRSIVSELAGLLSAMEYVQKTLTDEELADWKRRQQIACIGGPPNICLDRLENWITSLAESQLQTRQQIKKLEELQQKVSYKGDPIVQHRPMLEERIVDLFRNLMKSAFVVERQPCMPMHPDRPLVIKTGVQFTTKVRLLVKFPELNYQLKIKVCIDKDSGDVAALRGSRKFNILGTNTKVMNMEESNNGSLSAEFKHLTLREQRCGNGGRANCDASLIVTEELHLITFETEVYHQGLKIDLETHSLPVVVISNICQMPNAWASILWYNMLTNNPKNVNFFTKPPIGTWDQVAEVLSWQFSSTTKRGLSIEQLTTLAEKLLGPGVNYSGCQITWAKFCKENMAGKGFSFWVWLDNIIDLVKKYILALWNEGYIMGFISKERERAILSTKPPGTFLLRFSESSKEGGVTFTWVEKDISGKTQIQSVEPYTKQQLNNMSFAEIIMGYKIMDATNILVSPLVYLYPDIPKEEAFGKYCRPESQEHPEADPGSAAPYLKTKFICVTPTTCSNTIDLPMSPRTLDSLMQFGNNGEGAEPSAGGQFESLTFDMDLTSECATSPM
UniProt P62630: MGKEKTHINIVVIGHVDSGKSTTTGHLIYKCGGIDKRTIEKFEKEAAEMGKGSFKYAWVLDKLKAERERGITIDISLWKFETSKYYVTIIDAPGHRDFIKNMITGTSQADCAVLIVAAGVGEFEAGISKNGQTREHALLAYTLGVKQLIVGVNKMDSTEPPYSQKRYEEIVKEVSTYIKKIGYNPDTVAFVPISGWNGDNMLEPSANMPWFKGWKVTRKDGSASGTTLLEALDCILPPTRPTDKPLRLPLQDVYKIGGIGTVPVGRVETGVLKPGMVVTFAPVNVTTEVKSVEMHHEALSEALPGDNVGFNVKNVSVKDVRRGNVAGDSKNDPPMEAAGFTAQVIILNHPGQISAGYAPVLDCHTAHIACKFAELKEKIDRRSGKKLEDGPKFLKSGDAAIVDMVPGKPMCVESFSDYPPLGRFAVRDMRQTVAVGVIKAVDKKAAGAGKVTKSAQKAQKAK
UniProt P10126: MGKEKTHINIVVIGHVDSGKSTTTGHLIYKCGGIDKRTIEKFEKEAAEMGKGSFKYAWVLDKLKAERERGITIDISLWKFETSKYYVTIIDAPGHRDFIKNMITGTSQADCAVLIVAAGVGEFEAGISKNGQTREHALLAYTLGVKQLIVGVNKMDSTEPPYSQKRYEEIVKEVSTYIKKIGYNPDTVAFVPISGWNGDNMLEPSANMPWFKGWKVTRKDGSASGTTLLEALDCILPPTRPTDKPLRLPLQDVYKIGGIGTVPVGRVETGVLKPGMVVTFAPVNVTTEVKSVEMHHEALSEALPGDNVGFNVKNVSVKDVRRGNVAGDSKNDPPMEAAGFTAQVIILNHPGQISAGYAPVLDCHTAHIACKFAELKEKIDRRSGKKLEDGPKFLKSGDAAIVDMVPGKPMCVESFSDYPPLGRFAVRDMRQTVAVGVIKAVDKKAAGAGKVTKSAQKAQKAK
UniProt Q99MK2: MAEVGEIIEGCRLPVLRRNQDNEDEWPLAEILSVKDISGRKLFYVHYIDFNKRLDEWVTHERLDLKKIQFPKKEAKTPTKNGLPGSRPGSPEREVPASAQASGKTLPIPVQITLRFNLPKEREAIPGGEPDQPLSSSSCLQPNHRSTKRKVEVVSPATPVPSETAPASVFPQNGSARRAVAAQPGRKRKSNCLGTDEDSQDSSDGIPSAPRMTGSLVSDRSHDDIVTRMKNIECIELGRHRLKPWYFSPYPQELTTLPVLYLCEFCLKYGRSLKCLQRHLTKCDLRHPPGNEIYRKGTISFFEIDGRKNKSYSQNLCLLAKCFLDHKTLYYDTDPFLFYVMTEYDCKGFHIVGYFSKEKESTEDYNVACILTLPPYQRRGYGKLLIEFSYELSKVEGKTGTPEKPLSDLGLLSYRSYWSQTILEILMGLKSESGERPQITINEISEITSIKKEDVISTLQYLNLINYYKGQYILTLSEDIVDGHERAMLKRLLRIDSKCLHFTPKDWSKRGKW
UniProt P70288: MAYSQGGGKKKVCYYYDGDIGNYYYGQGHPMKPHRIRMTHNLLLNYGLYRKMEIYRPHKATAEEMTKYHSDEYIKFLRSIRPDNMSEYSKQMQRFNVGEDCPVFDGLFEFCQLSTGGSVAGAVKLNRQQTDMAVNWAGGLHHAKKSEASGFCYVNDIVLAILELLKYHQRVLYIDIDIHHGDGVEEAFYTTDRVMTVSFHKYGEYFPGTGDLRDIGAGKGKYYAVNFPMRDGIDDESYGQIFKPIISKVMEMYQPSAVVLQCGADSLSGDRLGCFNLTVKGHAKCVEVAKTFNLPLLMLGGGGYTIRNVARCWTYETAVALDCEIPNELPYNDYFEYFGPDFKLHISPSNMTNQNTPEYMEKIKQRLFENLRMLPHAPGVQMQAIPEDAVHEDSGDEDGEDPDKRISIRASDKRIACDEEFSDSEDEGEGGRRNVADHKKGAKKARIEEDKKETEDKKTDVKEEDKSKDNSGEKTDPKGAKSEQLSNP
UniProt O55170: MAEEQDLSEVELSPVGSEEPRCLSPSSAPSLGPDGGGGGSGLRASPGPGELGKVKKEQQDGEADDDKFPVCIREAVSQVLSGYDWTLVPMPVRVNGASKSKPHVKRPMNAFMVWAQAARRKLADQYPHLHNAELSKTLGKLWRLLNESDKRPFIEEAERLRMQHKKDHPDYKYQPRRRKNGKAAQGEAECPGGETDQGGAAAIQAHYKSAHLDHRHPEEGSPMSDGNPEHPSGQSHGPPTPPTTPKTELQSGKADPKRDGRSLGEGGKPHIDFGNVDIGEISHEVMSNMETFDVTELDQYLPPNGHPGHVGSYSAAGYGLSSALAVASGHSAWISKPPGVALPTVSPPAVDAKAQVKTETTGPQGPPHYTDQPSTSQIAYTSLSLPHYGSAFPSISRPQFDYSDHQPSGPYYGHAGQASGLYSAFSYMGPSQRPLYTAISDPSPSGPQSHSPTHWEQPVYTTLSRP

Experiment [3] concerns the target eukaryotic elongation factor 1A1 (eEF1A1), endogenous in mouse sciatic nerve (mouse (endogenous in sciatic nerve)) (UniProt P10126). Briefly: co-IP; IP of eEF1A1 (GFP antibody as control), Western blot of HDAC2; pools of two adult mouse crushed or unlesioned contralateral sciatic nerves at 3dpl; RIPA buffer.
The target in experiment [4] is mouse eEF1A1-turbo GFP (C-ter), overexpressed in primary rat Schwann cells (mouse) (UniProt P10126). The experiment can be described thus: co-IP; IP of GFP, Western blot of Sox10; nuclear and cytoplasmic fractions of rat Schwann cells transfected with eEF1A1-GFP or GFP and induced to de-differentiate for 1 day.

These are yes or no findings as the source states them, for the method shown. Binding seen in cells or lysates may run through a third protein. Some entries that bind do so weakly or less than the wild type.

With “lysine acetyltransferase Tip60, endogenous in primary rat Schwann cells (from UniProt Q99MK2 1-513) (enzyme)”, the binding entry in experiment [1] and in experiment [2] was “binds” each time.
As for “Stat3, endogenous in primary rat Schwann cells (from UniProt P52631 1-770)”, the binding entry in experiment [2] is “binds”.
On to “histone deacetylase HDAC2, endogenous in mouse sciatic nerve (from UniProt P70288 1-488) (enzyme)”, for which the binding entry in experiment [3] is given as “binds”.
Regarding “Sox10, endogenous in primary rat Schwann cells (from UniProt O55170 1-466)”, in experiment [4], the binding entry is given as “binds”.

The record behind these values is PMC7347577.
